Measurements: the supplement of paper PMC7238544
Structures can show the parent of a compound that is named as a salt. ± gives the standard deviation of the averaged measurements. The list shows a part of the results. The data scatter; read single values as rough.

Key:
hAMSC donor 1 [1] = assay: Hoechst total cell count ratio vs vehicle control; higher = more cells (less toxicity)
hAMSC donor 2 [2] = assay: as above
hAMSC donor 1 [3] = assay: transgenic luciferase activity (RLU/mg protein) fold change vs vehicle control (ratio); higher = more transgene expression
hAMSC donor 1 [4] = assay: transfection efficiency (EGFP+ cells / Hoechst count) fold change vs vehicle control (ratio); hAMSC are human adipose-derived mesenchymal stem cells given an EGFP-luciferase plasmid by lipofection; higher = enhanced transfection
hAMSC donor 2 [5] = assay: as above
[6] = priming compound concentration 0.2 µM
[7] = priming compound concentration 1.7 µM
[8] = priming compound concentration 13 µM

Question: `Cc1nc2n(c(=O)c1CCN1CCC(c3noc4cc(F)ccc34)CC1)CCCC2` [Risperidone] was tested. Which “Hoechst total cell count ratio” value (hAMSC donor 1 [1]; [6]) did it give?
Answer: 1.26 ± 0.14

Question: And the “Hoechst total cell count ratio” value (hAMSC donor 1 [1]; [7])?
Answer: 1.14 ± 0.028

Question: What about the “Hoechst total cell count ratio” value (hAMSC donor 1 [1]; [8]) of the same compound?
Answer: 1.28 ± 0.089

Question: What about the “Hoechst total cell count ratio” value (hAMSC donor 2 [2]; [6]) of the same compound?
Answer: 1.1 ± 0.29

Question: And the “Hoechst total cell count ratio” value (hAMSC donor 2 [2]; [7])?
Answer: 1.11 ± 0.19

Question: What about the “Hoechst total cell count ratio” value (hAMSC donor 2 [2]; [8]) of the same compound?
Answer: 1.32 ± 0.24

Question: What about the transgenic luciferase activity (hAMSC donor 1 [3]; [8]) of the same compound?
Answer: 1.52 ± 1.6

Question: And the transfection efficiency (hAMSC donor 1 [4]; [6])?
Answer: 1.19 ± 0.33

Question: And the transfection efficiency (hAMSC donor 1 [4]; [7])?
Answer: 1.36 ± 0.2

Question: And the transfection efficiency (hAMSC donor 1 [4]; [8])?
Answer: 0.766 ± 0.37

Question: And the transfection efficiency (hAMSC donor 2 [5]; [6])?
Answer: 1.3 ± 0.15

Question: What about the transfection efficiency (hAMSC donor 2 [5]; [7]) of the same compound?
Answer: 1.22 ± 0.27

Question: What about the transfection efficiency (hAMSC donor 2 [5]; [8]) of the same compound?
Answer: 0.894 ± 0.11

Question: Which “Hoechst total cell count ratio” value (hAMSC donor 1 [1]; [6]) does the source give for `Cc1onc(-c2c(Cl)cccc2Cl)c1C(=O)N[C@@H]1C(=O)N2[C@@H]1SC(C)(C)[C@@H]2C(=O)O` [Dicloxacillin sodium] here?
Answer: 1.2 ± 0.099

Question: And the “Hoechst total cell count ratio” value (hAMSC donor 1 [1]; [7])?
Answer: 1.34 ± 0.14

Question: What about the “Hoechst total cell count ratio” value (hAMSC donor 1 [1]; [8]) of the same compound?
Answer: 1.19 ± 0.053

Question: And the “Hoechst total cell count ratio” value (hAMSC donor 2 [2]; [6])?
Answer: 0.706 ± 0.059

Question: And the “Hoechst total cell count ratio” value (hAMSC donor 2 [2]; [7])?
Answer: 0.947 ± 0.054

Question: And the “Hoechst total cell count ratio” value (hAMSC donor 2 [2]; [8])?
Answer: 0.325 ± 0.037

Question: What about the transgenic luciferase activity (hAMSC donor 1 [3]; [7]) of the same compound?
Answer: 0.846 ± 0.29

Question: What about the transfection efficiency (hAMSC donor 1 [4]; [6]) of the same compound?
Answer: 1.53 ± 0.43

Question: What about the transfection efficiency (hAMSC donor 1 [4]; [7]) of the same compound?
Answer: 0.913 ± 0.04

Question: What about the transfection efficiency (hAMSC donor 1 [4]; [8]) of the same compound?
Answer: 0.942 ± 0.29

Question: What about the transfection efficiency (hAMSC donor 2 [5]; [6]) of the same compound?
Answer: 1.34 ± 0.018

Question: And the transfection efficiency (hAMSC donor 2 [5]; [7])?
Answer: 1.28 ± 0.19

Question: And the transfection efficiency (hAMSC donor 2 [5]; [8])?
Answer: 2.42 ± 0.07

Question: What does the source list for `CC(Cc1ccccc1)(NC(=O)CN)c1ccccc1` (centres undefined) [Remacemide hydrochloride]?
Answer: Hoechst total cell count ratio (hAMSC donor 1 [1]; [6]): 1.31 ± 0.099; Hoechst total cell count ratio (hAMSC donor 1 [1]; [7]): 1.2 ± 0.1; Hoechst total cell count ratio (hAMSC donor 1 [1]; [8]): 1.38 ± 0.21; Hoechst total cell count ratio (hAMSC donor 2 [2]; [6]): 1.27 ± 0.11; Hoechst total cell count ratio (hAMSC donor 2 [2]; [7]): 1.08 ± 0.2; Hoechst total cell count ratio (hAMSC donor 2 [2]; [8]): 1.23 ± 0.076; transgenic luciferase activity (hAMSC donor 1 [3]; [8]): 1.02 ± 0.3; transfection efficiency (hAMSC donor 1 [4]; [6]): 0.934 ± 0.45; transfection efficiency (hAMSC donor 1 [4]; [7]): 0.83 ± 0.13; transfection efficiency (hAMSC donor 1 [4]; [8]): 0.885 ± 0.15; transfection efficiency (hAMSC donor 2 [5]; [6]): 0.858 ± 0.18; transfection efficiency (hAMSC donor 2 [5]; [7]): 1.31 ± 0.35; transfection efficiency (hAMSC donor 2 [5]; [8]): 1.01 ± 0.22

Question: What does the source list for `CC(C)OC(=O)CCC/C=C\C[C@@H]1[C@@H](CC[C@@H](O)CCc2ccccc2)[C@H](O)C[C@@H]1O` [Latanoprost]?
Answer: Hoechst total cell count ratio (hAMSC donor 1 [1]; [6]): 1.33 ± 0.051; Hoechst total cell count ratio (hAMSC donor 1 [1]; [7]): 1.18 ± 0.042; Hoechst total cell count ratio (hAMSC donor 1 [1]; [8]): 1.16 ± 0.092; Hoechst total cell count ratio (hAMSC donor 2 [2]; [6]): 1.04 ± 0.16; Hoechst total cell count ratio (hAMSC donor 2 [2]; [7]): 1.24 ± 0.083; Hoechst total cell count ratio (hAMSC donor 2 [2]; [8]): 1.57 ± 0.13; transgenic luciferase activity (hAMSC donor 1 [3]; [8]): 0.538 ± 0.25; transfection efficiency (hAMSC donor 1 [4]; [6]): 0.622 ± 0.14; transfection efficiency (hAMSC donor 1 [4]; [7]): 0.679 ± 0.046; transfection efficiency (hAMSC donor 1 [4]; [8]): 0.382 ± 0.086; transfection efficiency (hAMSC donor 2 [5]; [6]): 1.36 ± 0.27; transfection efficiency (hAMSC donor 2 [5]; [7]): 1.05 ± 0.13; transfection efficiency (hAMSC donor 2 [5]; [8]): 0.628 ± 0.1

Question: For `CC1=C(C(=O)O)N2C(=O)[C@@H](NC(=O)[C@H](N)c3ccccc3)[C@H]2SC1` [Cephalexin hydrate], which “Hoechst total cell count ratio” value (hAMSC donor 1 [1]; [6]) is on record?
Answer: 1.56 ± 0.14

Question: What about the “Hoechst total cell count ratio” value (hAMSC donor 1 [1]; [7]) of the same compound?
Answer: 1.4 ± 0.063

Question: What about the “Hoechst total cell count ratio” value (hAMSC donor 1 [1]; [8]) of the same compound?
Answer: 1.12 ± 0.1

Question: And the “Hoechst total cell count ratio” value (hAMSC donor 2 [2]; [6])?
Answer: 1.21 ± 0.073

Question: And the “Hoechst total cell count ratio” value (hAMSC donor 2 [2]; [7])?
Answer: 1.15 ± 0.16

Question: What about the “Hoechst total cell count ratio” value (hAMSC donor 2 [2]; [8]) of the same compound?
Answer: 1.25 ± 0.15

Question: And the transgenic luciferase activity (hAMSC donor 1 [3]; [8])?
Answer: 0.707 ± 0.37

Question: And the transfection efficiency (hAMSC donor 1 [4]; [6])?
Answer: 1.01 ± 0.17

Question: What about the transfection efficiency (hAMSC donor 1 [4]; [7]) of the same compound?
Answer: 0.976 ± 0.14

Question: And the transfection efficiency (hAMSC donor 1 [4]; [8])?
Answer: 1.47 ± 0.23

Question: What about the transfection efficiency (hAMSC donor 2 [5]; [6]) of the same compound?
Answer: 1.15 ± 0.1

Question: And the transfection efficiency (hAMSC donor 2 [5]; [7])?
Answer: 1.09 ± 0.3

Question: What about the transfection efficiency (hAMSC donor 2 [5]; [8]) of the same compound?
Answer: 0.875 ± 0.19

Question: `O=C(CCNNC(=O)c1ccncc1)NCc1ccccc1` [Nialamide] was tested. Which “Hoechst total cell count ratio” value (hAMSC donor 1 [1]; [6]) did it give?
Answer: 1.18 ± 0.2

Question: What about the “Hoechst total cell count ratio” value (hAMSC donor 1 [1]; [7]) of the same compound?
Answer: 1.21 ± 0.19

Question: And the “Hoechst total cell count ratio” value (hAMSC donor 1 [1]; [8])?
Answer: 1.32 ± 0.3

Question: What about the “Hoechst total cell count ratio” value (hAMSC donor 2 [2]; [6]) of the same compound?
Answer: 0.943 ± 0.16

Question: What about the “Hoechst total cell count ratio” value (hAMSC donor 2 [2]; [7]) of the same compound?
Answer: 1.99 ± 0.92

Question: And the “Hoechst total cell count ratio” value (hAMSC donor 2 [2]; [8])?
Answer: 0.832 ± 0.21

Question: And the transgenic luciferase activity (hAMSC donor 1 [3]; [8])?
Answer: 0.687 ± 0.14

Question: What about the transfection efficiency (hAMSC donor 1 [4]; [6]) of the same compound?
Answer: 1.12 ± 0.57

Question: And the transfection efficiency (hAMSC donor 1 [4]; [7])?
Answer: 1.28 ± 0.35

Question: What about the transfection efficiency (hAMSC donor 1 [4]; [8]) of the same compound?
Answer: 0.973 ± 0.37

Question: And the transfection efficiency (hAMSC donor 2 [5]; [6])?
Answer: 1.14 ± 0.25

Question: And the transfection efficiency (hAMSC donor 2 [5]; [7])?
Answer: 1.17 ± 0.07

Question: What about the transfection efficiency (hAMSC donor 2 [5]; [8]) of the same compound?
Answer: 1.24 ± 0.17

Question: Which results are given for `CN(C)[C@@H]1C(O)=C(C(=O)NCN2CCCC2)C(=O)[C@@]2(O)C(O)=C3C(=O)c4c(O)cccc4[C@@](C)(O)[C@H]3C[C@@H]12` [Rolitetracycline]?
Answer: Hoechst total cell count ratio (hAMSC donor 1 [1]; [6]): 1.58 ± 0.097; Hoechst total cell count ratio (hAMSC donor 1 [1]; [7]): 1.54 ± 0.068; Hoechst total cell count ratio (hAMSC donor 1 [1]; [8]): 1.24 ± 0.07; Hoechst total cell count ratio (hAMSC donor 2 [2]; [6]): 1.135 ± 0.0072; Hoechst total cell count ratio (hAMSC donor 2 [2]; [7]): 1.11 ± 0.055; Hoechst total cell count ratio (hAMSC donor 2 [2]; [8]): 1.06 ± 0.071; transgenic luciferase activity (hAMSC donor 1 [3]; [8]): 0.736 ± 0.57; transfection efficiency (hAMSC donor 1 [4]; [6]): 0.862 ± 0.14; transfection efficiency (hAMSC donor 1 [4]; [7]): 0.823 ± 0.2; transfection efficiency (hAMSC donor 1 [4]; [8]): 1.05 ± 0.14; transfection efficiency (hAMSC donor 2 [5]; [6]): 1.14 ± 0.37; transfection efficiency (hAMSC donor 2 [5]; [7]): 1.05 ± 0.091; transfection efficiency (hAMSC donor 2 [5]; [8]): 0.851 ± 0.46

Question: What does the source list for `COc1cc(/C=C/c2ccc(O)cc2)cc(OC)c1` [Pterostilbene]?
Answer: Hoechst total cell count ratio (hAMSC donor 1 [1]; [6]): 1.31 ± 0.29; Hoechst total cell count ratio (hAMSC donor 1 [1]; [7]): 1.1 ± 0.041; Hoechst total cell count ratio (hAMSC donor 1 [1]; [8]): 0.947 ± 0.14; Hoechst total cell count ratio (hAMSC donor 2 [2]; [6]): 1.25 ± 0.24; Hoechst total cell count ratio (hAMSC donor 2 [2]; [7]): 1.26 ± 0.093; Hoechst total cell count ratio (hAMSC donor 2 [2]; [8]): 1.24 ± 0.2; transgenic luciferase activity (hAMSC donor 1 [3]; [8]): 1.57 ± 0.31; transfection efficiency (hAMSC donor 1 [4]; [6]): 1.03 ± 0.29; transfection efficiency (hAMSC donor 1 [4]; [7]): 1.09 ± 0.28; transfection efficiency (hAMSC donor 1 [4]; [8]): 1.47 ± 0.22; transfection efficiency (hAMSC donor 2 [5]; [6]): 1.13 ± 0.2; transfection efficiency (hAMSC donor 2 [5]; [7]): 1.34 ± 0.074; transfection efficiency (hAMSC donor 2 [5]; [8]): 1.11 ± 0.11
